This is one part of the list.

Amino acid sequences for entries named in this document (tags omitted). A change or cut given only in a name is not applied to a line headed by its entry.
UniProt Q8IWF6: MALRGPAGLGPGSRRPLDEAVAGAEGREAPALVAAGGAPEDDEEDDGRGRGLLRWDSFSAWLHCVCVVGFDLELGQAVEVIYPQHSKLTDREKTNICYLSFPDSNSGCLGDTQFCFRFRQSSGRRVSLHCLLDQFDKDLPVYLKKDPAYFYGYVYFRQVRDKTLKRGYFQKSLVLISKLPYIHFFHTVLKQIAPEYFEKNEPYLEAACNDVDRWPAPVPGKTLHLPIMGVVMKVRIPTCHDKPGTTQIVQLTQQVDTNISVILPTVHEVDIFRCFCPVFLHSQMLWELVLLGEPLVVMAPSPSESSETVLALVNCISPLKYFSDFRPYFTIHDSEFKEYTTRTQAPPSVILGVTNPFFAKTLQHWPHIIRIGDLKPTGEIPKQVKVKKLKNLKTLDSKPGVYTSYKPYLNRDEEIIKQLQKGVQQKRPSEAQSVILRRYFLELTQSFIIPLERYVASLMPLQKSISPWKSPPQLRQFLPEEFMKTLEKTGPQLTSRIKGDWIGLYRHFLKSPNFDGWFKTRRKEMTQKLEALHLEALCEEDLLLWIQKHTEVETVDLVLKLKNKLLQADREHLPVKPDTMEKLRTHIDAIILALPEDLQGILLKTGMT
UniProt O43583: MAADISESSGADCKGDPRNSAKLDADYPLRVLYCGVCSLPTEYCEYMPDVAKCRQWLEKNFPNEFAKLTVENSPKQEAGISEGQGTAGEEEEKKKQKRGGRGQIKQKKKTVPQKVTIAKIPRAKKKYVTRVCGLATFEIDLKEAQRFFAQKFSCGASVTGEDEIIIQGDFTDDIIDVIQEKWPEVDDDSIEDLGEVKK
UniProt O43143: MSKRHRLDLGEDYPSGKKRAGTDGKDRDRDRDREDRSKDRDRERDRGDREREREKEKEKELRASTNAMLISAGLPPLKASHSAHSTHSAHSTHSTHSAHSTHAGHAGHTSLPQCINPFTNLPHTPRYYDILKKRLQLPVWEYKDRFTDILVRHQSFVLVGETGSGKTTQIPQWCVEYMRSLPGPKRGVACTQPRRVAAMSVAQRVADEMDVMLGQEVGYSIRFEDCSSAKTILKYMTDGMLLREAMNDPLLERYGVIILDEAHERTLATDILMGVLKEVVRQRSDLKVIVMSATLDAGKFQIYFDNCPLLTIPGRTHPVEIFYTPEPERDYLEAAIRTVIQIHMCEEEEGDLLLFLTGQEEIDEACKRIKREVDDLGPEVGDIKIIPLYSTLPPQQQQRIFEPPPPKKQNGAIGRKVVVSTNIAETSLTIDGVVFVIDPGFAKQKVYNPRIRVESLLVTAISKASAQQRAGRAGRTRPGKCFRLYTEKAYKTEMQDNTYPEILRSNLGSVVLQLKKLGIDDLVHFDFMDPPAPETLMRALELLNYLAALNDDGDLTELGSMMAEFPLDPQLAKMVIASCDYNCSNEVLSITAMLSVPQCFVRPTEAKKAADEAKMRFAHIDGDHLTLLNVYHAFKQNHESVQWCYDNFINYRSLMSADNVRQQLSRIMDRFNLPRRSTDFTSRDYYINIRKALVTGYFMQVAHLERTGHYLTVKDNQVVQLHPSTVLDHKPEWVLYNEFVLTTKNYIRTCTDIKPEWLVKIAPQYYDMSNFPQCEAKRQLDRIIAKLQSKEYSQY
UniProt Q9NR30: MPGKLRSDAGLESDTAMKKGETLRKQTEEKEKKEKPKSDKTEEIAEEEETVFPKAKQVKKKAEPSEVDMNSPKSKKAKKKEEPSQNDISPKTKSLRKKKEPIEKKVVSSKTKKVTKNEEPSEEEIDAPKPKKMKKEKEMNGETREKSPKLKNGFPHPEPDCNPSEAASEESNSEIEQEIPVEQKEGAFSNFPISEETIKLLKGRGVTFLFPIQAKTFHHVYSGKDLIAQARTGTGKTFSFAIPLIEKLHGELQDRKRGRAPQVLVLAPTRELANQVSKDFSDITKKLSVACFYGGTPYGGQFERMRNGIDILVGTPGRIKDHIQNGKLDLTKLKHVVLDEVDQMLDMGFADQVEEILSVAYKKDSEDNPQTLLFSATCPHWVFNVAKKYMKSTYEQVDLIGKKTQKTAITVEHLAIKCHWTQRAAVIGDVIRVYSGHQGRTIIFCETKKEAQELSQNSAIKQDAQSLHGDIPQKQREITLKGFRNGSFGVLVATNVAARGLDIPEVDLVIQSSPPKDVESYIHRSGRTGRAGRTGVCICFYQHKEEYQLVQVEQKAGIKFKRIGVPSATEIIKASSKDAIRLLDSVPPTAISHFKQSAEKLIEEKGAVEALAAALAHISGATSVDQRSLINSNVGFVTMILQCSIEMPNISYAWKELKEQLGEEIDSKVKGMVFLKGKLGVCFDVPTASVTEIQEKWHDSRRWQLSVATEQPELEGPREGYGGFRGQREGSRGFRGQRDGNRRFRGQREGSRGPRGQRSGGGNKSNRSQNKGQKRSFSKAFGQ
UniProt O94830: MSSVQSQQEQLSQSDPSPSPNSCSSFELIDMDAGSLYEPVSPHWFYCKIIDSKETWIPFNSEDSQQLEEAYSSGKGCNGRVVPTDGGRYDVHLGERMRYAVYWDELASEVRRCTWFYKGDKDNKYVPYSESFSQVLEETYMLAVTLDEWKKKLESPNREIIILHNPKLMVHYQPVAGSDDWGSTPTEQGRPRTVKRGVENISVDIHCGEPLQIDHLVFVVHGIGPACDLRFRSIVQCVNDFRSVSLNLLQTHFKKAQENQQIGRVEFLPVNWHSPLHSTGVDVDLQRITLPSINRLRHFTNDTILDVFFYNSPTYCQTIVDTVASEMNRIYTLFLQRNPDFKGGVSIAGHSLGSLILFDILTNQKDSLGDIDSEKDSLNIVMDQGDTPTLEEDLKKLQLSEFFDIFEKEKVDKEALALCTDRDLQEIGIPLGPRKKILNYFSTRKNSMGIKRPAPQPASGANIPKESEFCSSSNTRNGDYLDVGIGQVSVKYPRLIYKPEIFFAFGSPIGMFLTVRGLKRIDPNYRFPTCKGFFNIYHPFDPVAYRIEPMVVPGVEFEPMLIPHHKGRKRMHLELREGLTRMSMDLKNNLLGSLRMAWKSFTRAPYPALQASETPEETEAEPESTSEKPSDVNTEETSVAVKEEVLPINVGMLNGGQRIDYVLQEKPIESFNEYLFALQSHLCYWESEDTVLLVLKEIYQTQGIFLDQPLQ
UniProt P30046: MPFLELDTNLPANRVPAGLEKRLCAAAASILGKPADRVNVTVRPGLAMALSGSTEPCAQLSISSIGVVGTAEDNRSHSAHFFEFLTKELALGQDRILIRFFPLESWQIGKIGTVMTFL
UniProt Q9UHI6: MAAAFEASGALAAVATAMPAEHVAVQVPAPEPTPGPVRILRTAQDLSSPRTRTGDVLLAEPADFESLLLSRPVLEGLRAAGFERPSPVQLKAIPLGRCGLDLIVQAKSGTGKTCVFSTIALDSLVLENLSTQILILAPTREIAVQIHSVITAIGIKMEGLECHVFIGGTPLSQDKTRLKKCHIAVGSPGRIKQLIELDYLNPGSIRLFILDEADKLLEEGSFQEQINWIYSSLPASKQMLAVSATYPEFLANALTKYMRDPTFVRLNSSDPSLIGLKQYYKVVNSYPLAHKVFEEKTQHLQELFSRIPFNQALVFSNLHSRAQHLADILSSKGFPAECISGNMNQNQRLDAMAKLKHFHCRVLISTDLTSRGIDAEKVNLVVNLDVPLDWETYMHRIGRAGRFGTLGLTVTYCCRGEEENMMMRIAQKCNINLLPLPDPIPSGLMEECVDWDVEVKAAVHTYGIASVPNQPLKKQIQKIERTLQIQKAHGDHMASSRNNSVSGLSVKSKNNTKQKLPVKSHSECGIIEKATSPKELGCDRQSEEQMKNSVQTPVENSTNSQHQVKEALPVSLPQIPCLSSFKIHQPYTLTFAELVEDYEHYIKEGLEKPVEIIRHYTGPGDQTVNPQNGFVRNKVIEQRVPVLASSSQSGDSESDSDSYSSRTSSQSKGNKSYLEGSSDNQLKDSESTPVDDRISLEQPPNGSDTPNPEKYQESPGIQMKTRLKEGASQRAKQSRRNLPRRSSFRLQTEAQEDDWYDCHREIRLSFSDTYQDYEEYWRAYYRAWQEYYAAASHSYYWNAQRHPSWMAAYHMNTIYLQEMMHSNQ
UniProt Q9UMR2: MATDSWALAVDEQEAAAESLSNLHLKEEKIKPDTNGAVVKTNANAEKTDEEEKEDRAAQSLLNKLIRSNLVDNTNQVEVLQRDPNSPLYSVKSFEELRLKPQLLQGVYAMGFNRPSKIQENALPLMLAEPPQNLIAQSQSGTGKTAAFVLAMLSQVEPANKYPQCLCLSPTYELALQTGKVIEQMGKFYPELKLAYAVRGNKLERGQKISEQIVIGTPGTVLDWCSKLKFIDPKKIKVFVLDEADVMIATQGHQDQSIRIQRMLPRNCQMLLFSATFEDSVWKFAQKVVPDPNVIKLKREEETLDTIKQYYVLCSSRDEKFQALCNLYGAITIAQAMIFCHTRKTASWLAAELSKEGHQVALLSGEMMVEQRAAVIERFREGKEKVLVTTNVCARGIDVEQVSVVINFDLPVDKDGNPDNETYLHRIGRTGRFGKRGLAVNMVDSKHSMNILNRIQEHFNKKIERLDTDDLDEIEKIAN
UniProt O95865: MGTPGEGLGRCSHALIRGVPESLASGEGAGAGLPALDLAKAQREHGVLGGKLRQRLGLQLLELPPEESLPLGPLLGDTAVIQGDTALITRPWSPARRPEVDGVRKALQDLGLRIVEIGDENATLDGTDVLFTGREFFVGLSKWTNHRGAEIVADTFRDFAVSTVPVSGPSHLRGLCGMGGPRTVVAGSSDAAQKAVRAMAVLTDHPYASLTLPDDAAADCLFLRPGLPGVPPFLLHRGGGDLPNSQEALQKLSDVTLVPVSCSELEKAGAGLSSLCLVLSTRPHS
UniProt Q86SQ9: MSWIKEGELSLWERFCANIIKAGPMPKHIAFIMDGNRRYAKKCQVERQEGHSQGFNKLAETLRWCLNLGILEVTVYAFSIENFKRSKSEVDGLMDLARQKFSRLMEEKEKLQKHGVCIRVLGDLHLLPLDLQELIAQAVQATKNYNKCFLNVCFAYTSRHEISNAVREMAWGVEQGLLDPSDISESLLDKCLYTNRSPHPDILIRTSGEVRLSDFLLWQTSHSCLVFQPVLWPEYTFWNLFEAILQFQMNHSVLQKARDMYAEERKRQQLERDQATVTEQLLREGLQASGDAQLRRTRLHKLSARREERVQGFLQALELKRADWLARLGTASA
UniProt Q08495: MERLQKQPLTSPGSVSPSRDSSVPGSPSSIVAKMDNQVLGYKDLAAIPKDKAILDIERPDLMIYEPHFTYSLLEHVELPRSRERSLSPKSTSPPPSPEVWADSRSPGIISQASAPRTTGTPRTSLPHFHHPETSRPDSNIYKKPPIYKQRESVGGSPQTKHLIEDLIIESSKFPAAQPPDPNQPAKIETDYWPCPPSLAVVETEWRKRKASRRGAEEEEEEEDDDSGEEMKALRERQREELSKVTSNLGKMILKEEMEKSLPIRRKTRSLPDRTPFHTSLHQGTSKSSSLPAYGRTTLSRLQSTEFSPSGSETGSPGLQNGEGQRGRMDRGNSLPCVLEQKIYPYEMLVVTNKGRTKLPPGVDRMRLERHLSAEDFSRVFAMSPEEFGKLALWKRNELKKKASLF
UniProt O60884: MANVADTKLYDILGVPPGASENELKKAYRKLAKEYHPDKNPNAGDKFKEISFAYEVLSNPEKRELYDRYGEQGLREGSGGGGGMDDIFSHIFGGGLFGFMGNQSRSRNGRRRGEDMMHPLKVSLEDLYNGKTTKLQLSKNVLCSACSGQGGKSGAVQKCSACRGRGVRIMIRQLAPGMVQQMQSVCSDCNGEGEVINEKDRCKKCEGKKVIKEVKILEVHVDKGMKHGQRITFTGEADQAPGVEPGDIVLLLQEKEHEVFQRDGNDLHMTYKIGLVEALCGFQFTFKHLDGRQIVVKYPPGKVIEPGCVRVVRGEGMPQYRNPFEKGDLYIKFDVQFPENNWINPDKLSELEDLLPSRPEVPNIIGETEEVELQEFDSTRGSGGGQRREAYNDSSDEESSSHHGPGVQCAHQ
UniProt Q9UNQ2: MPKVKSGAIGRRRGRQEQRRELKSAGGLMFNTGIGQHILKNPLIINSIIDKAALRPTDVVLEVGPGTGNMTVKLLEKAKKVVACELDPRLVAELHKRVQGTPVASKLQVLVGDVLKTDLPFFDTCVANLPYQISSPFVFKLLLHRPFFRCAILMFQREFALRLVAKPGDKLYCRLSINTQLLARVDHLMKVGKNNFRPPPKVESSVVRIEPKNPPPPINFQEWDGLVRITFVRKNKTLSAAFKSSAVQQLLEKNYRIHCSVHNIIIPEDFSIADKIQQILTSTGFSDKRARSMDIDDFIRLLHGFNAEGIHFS
UniProt O00273: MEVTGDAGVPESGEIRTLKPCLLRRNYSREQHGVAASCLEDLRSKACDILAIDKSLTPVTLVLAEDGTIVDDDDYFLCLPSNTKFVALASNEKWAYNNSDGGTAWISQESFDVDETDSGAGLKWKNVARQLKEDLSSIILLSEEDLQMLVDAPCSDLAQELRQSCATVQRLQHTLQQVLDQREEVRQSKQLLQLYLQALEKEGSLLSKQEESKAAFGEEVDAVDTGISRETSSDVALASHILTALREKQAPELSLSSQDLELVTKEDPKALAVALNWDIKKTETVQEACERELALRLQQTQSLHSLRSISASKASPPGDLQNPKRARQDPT

In the supplement of paper PMC10849652 one finds log2 fold change data, which are given here for 39 targets.

Compound in one assay: CNCc1ccc(-c2[nH]c3cc(F)cc4c3c2CCNC4=O)cc1 [rucaparib]
Nature of the assay: log2 fold change, soluble protein after heating vs DMSO (PISA); higher = thermal stabilisation; K562 cells, 10 uM, 30 min; active = over 0.2 and 3.5 SD of the protein, either way, in both replicates (recomputed). The essentials:
(§1)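 Aliquots of K562 cells (2×10^6 cells/mL) treated with 10 μM compound for 30 min were heated for 3 min over 48°C-58°C. After pooling and extraction in PBS with 0.5% NP-40 at 4°C, soluble protein from a 21,000xg, 90 min spin was quantified by TMTpro 16plex LC-MS/MS with channel sums equalised. Thermal stability is expressed against control samples, from duplicates, as a log2 fold change.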
Turning to DGCR8 (UniProt Q8WYQ5), the log2 fold change was inactive: 0.352.

In the case of DENND6A (UniProt Q8IWF6), the log2 fold change was inactive: 0.084.

For the target DHX57 (UniProt Q6P158), the log2 fold change is inactive: 0.105.

DHRS11 (UniProt Q6UWP2): the log2 fold change was inactive: -0.035.

As to DENR (UniProt O43583), the log2 fold change was inactive: -0.043.

As for DHX15 (UniProt O43143), the log2 fold change was inactive: -0.002.

Turning to DEK (UniProt P35659), the log2 fold change is inactive: -0.014.

In the case of DENND4C isoform 7 (UniProt Q5VZ89), the log2 fold change is inactive: 0.017.

Consider DDX21 (UniProt Q9NR30), for which the log2 fold change is inactive: 0.267.

With DDHD2 (UniProt O94830), the log2 fold change is inactive: 0.009.

On to DIDO1 (UniProt Q9BTC0), for which the log2 fold change was inactive: 0.093.

Consider DIP2B (UniProt Q9P265), for which the log2 fold change is inactive: -0.017.

For DIS3L (UniProt Q8TF46), the log2 fold change is inactive: 0.205.

Take DDT (UniProt P30046): the log2 fold change is inactive: -0.013.

Consider DDI2 isoform 3 (UniProt Q5TDH0), for which the log2 fold change was inactive: -0.019.

Turning to DDX42 (UniProt Q86XP3), the log2 fold change was inactive: -0.006.

In the case of DDX41 (UniProt Q9UJV9), the log2 fold change is inactive: -0.014.

Take DDX20 (UniProt Q9UHI6): the log2 fold change is inactive: 0.398.

As to DNAH9 (UniProt Q9NYC9), the log2 fold change is inactive: -0.012.

Regarding DDX19B (UniProt Q9UMR2), the log2 fold change was inactive: -0.004.

As to DDX49 (UniProt Q9Y6V7), the log2 fold change was inactive: 0.078.

With DDAH2 (UniProt O95865), the log2 fold change is inactive: -0.024.

For the target DHDDS isoform 2 (UniProt Q86SQ9), the log2 fold change is inactive: -0.017.

Regarding DGKZ (UniProt Q13574), the log2 fold change is inactive: 0.085.

As for DMTN (UniProt Q08495), the log2 fold change was inactive: -0.035.

With DMD (UniProt P11532), the log2 fold change is inactive: -0.01.

Regarding DGUOK (UniProt Q16854), the log2 fold change is inactive: -0.033.

In the case of DNAJA2 (UniProt O60884), the log2 fold change was inactive: -0.012.

As for DIMT1 (UniProt Q9UNQ2), the log2 fold change is inactive: 0.214.

Turning to DHX8 (UniProt Q14562), the log2 fold change is inactive: 0.015.

Take DFFA (UniProt O00273): the log2 fold change is inactive: -0.117.

For DDX23 (UniProt Q9BUQ8), the log2 fold change is inactive: 0.089.

Turning to DERL1 (UniProt Q9BUN8), the log2 fold change was inactive: 0.02.

Compound in another assay: CNc1nc(-c2ccc3c(N)n[nH]c3c2)cc(N2C[C@@H](C(=O)NC3CCCCC3)CC[C@H]2C)n1
Described as above. The method, boiled down: as §1
Regarding DGCR8 (UniProt Q8WYQ5), the log2 fold change was inactive: 0.158.

Consider DENND6A (UniProt Q8IWF6), for which the log2 fold change was inactive: -0.1.

For DHX57 (UniProt Q6P158), the log2 fold change was inactive: 0.058.

For DHRS11 (UniProt Q6UWP2), the log2 fold change is inactive: 0.018.

For the target DENR (UniProt O43583), the log2 fold change is inactive: -0.021.

Turning to DHX15 (UniProt O43143), the log2 fold change is inactive: 0.024.

For DEK (UniProt P35659), the log2 fold change was inactive: -0.003.

As to DENND4C isoform 7 (UniProt Q5VZ89), the log2 fold change was inactive: -0.033.

Regarding DDX21 (UniProt Q9NR30), the log2 fold change was inactive: 0.122.

For DLG3 (UniProt Q92796), the log2 fold change was inactive: 0.021.

On to DENND4B (UniProt O75064), for which the log2 fold change was inactive: 0.

Consider DDHD2 (UniProt O94830), for which the log2 fold change is inactive: -0.063.

For DIDO1 (UniProt Q9BTC0), the log2 fold change was inactive: 0.069.

As to DIP2B (UniProt Q9P265), the log2 fold change is inactive: 0.004.

Turning to DIS3L (UniProt Q8TF46), the log2 fold change was inactive: 0.

Consider DDT (UniProt P30046), for which the log2 fold change was inactive: -0.03.

As to DDI2 isoform 3 (UniProt Q5TDH0), the log2 fold change is inactive: -0.029.

Consider DDX42 (UniProt Q86XP3), for which the log2 fold change was inactive: -0.046.

For the target DICER1 (UniProt Q9UPY3), the log2 fold change is inactive: -0.057.

As to DDX41 (UniProt Q9UJV9), the log2 fold change was inactive: 0.007.

As for DDX20 (UniProt Q9UHI6), the log2 fold change was inactive: 0.02.

For DNAH9 (UniProt Q9NYC9), the log2 fold change was inactive: -0.065.

Turning to DDX19B (UniProt Q9UMR2), the log2 fold change was inactive: -0.012.

As to DDX49 (UniProt Q9Y6V7), the log2 fold change was inactive: 0.017.

Consider DDAH2 (UniProt O95865), for which the log2 fold change is inactive: -0.004.

On to DHDDS isoform 2 (UniProt Q86SQ9), for which the log2 fold change was inactive: -0.009.

For DGKZ (UniProt Q13574), the log2 fold change was inactive: -0.049.

Consider DMTN (UniProt Q08495), for which the log2 fold change was inactive: -0.036.

As for DMD (UniProt P11532), the log2 fold change was inactive: -0.024.

Take DGUOK (UniProt Q16854): the log2 fold change was inactive: -0.04.

In the case of DDB2 (UniProt Q92466), the log2 fold change is inactive: -0.048.

For DNAJA2 (UniProt O60884), the log2 fold change is inactive: -0.02.

DIMT1 (UniProt Q9UNQ2): the log2 fold change is inactive: 0.085.

As to DIPK2A (UniProt Q8NDZ4), the log2 fold change was inactive: 0.1.

As for DHX8 (UniProt Q14562), the log2 fold change was inactive: -0.036.

Take DFFA (UniProt O00273): the log2 fold change is inactive: -0.068.

As for DDX23 (UniProt Q9BUQ8), the log2 fold change is inactive: -0.05.

As for DMXL2 isoform 3 (UniProt Q8TDJ6), the log2 fold change is inactive: -0.039.

As to DERL1 (UniProt Q9BUN8), the log2 fold change was inactive: -0.09.
